Data on one molecule can be found in patent publication US20080207496A1, “ORGANIC COMPOUND” (priority 2003, published 2008).

Like-named read-outs stand apart in the source and are kept apart here.

Data set [1] can be described thus: Phase I and II studies in patients with advanced cancer. The data set is classed as in vivo, human. Particulars: oral.
Data set [2] concerns Peripheral blood mononuclear cells (PBMCs). Particulars: ConA induced PBMC proliferation.
Data set [3] deals with IL-2 production by CD3+ T cells. Particulars: at greater concentrations (above 0.5 mM as printed).
For data set [4], the system named is IFN-gamma production by CD3+ T cells. Particulars: at greater concentrations (above 0.5 mM as printed).
Data set [5] has as its system Peripheral blood mononuclear cells (PBMCs). In words: cells. Particulars: Homo sapiens, PBMC.
The test system of another data set is lymphocytes. In words: cells. Particulars: Lymphocyte, read-out: IC50, allogeneic cell induced lymphocyte proliferation.
Data set [6] concerns TNF-alpha production by CD3+ T cells. Put plainly: cells. Particulars: Homo sapiens, T-cell, 6 h, read-out: IC50, TNF-alpha production by CD3+ T cells.

As to `CO[C@@H]1[C@H](N(C)C(=O)c2ccccc2)C[C@H]2O[C@]1(C)n1c3ccccc3c3c4c(c5c6ccccc6n2c5c31)C(=O)NC4` [Compound I, midostaurin], in data set [1], the safety / toxicity result was “safe with minimal toxicity”. Further, in data set [2], the “inhibitory effects in combination with CsA” value is listed as “additive”. Moreover, the “IC50, IL-2 production by CD3+ T cells” value in data set [3] is on record as “low micromolar range”. The “IC50, IFN-gamma production by CD3+ T cells” value in data set [4] was “low micromolar range”. The IC50 in data set [5] (read-out: IC50, ConA induced PBMC proliferation, Compound I alone) was roughly 400 nM; in data set [5] (read-out: IC50, ConA induced PBMC proliferation, with 50 ng/ml CsA) it was 60 nM; in data set [5] (read-out: IC50, lectin induced lymphocyte proliferation, Example 5, one range stated for lectin and allogeneic cell induced proliferation) it was 250 to 400 nM; in the data set on lymphocytes, 250 to 400 nM; in data set [6] it was 500 nM.
